This note sets out measurements from PubChem BioAssay AID192 (DTP/NCI, 2004).

Structures are written as SMILES. The list shows only some results of the screen, not a fair sample: it gathers tests that were run many times, whatever their T/C, doses with no T/C, and many T/C values between a quarter and a half above the control. Other doses and runs of a compound stand elsewhere. T/C: endpoint of the treated group in % of that of the vehicle group. Some doses have a count of surviving animals in place of a T/C: the source files T/C as zero there, which appears to mark a toxic dose or a test without result, not a measured value. Some doses without a T/C left all or most animals alive at the check, yet need not have been tolerated: the source hardly ever lists a survival T/C far under the control, and the zero likely stands for such cases as well. Counts of survivors are from the toxicity check (mostly the fifth day) where no day follows; animals may have died later. Schedule codes are those of the source, taken here to give the interval after Q, in days (D) or hours (H), and the number of doses after X. Where survival is the endpoint, the PubChem record calls one and a half times the control and up active, and a quarter to a half above the control has no call in these data; cut-offs in other NCI protocols can differ. Some T/C values are followed by the survivors on the day toxicity was checked, most often the fifth; without a count, all were alive then.

The experiment concerns BDF1 mice, B16 melanoma ip, median survival T/C. Kind of experiment: NCI In Vivo Anticancer Drug Screen. Data for tumor model B16 Melanoma (intraperitoneal) in B6D2F1 (BDF1) mice. The conditions noted are these: T/C endpoint: median survival time, higher T/C = longer survival. The essentials:
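Read-out: survival or tumor size, given as treated/control ratio. Controls received vehicle only; animals bore transplantable tumors.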

Where [1] appears, read: dose: 400.0 mg/kg/injection, schedule: Q01DX009 (ip), vehicle: Klucel (hydroxypropylcellulose) (HPC).
The mark [2] stands for this setting: dose: 100.0 mg/kg/injection, schedule: Q01DX009 (ip), vehicle: Klucel (hydroxypropylcellulose) (HPC).
[3] abbreviates: dose: 200.0 mg/kg/injection, schedule: Q01DX009 (ip), vehicle: Klucel (hydroxypropylcellulose) (HPC).
Setting [4] is: dose: 400.0 mg/kg/injection, schedule: Q01DX009 (ip), vehicle: saline with Tween-80.
Where [5] appears, read: dose: 200.0 mg/kg/injection, schedule: Q01DX009 (ip), vehicle: saline.
The mark [6] stands for this setting: dose: 400.0 mg/kg/injection, schedule: Q01DX009 (ip), vehicle: saline.
Where [7] appears, read: dose: 100.0 mg/kg/injection, schedule: Q01DX009 (ip), vehicle: saline with Tween-80.

Regarding `C=C(NC(=O)C(=C)NC(=O)c1csc(C2=NC3c4csc(n4)C4NC(=O)c5csc(n5)C(C(C)(O)C(C)O)NC(=O)C5CSC(=N5)/C(=C/C)NC(=O)C(C(C)O)NC(=O)c5csc(n5)C3(CC2)NC(=O)C(C)NC(=O)C(=C)NC(=O)C(C)NC(=O)C(C(C)CC)NC2C=Cc3c(C(C)O)cc(nc3C2O)C(=O)OC4C)n1)C(N)=O` (configuration not stated), the survivor count under setting [1] was 10 of 10. As for `COc1cccc2c1C(=O)c1c(O)c3c(c(O)c1C2=O)C[C@@](O)(/C(C)=N\O)C[C@@H]3OC1CC(N)C(O)C(C)O1` (some centres not stated), the T/C was 149 % of control (dose: 6.25 mg/kg/injection, schedule: Q01DX009 (ip), vehicle: water) and 149 % of control (dose: 25.0 mg/kg/injection, schedule: Q01DX009 (ip), vehicle: water). For the same compound, the survivor count is reported as 6 of 10 (dose: 50.0 mg/kg/injection, schedule: Q01DX009 (ip), vehicle: water); 5 of 10 (dose: 100.0 mg/kg/injection, schedule: Q01DX001 (ip), vehicle: water); 0 of 10 (dose: 200.0 mg/kg/injection, schedule: Q01DX001 (ip), vehicle: water).

`CC(NC(=O)OCc1ccccc1)C(=O)O` (configuration not stated): the survivor count reads like this: under setting [2], 10 of 10; under setting [3], 9 of 10; (dose: 200.0 mg/kg/injection, schedule: Q04DX003 (ip), vehicle: Klucel (hydroxypropylcellulose) (HPC)) 10 of 10; under setting [1], 9 of 10; (dose: 400.0 mg/kg/injection, schedule: Q04DX003 (ip), vehicle: Klucel (hydroxypropylcellulose) (HPC)) 10 of 10. As to `Nc1nc2c(ncn2C2OC(CO)C(O)C2O)c(=O)[nH]1` (configuration not stated), the T/C was 125 % of control (dose: 200.0 mg/kg/injection, schedule: Q01DX009 (ip), vehicle: suspension in saline) and 131 % of control (dose: 800.0 mg/kg/injection, schedule: Q01DX009 (ip), vehicle: suspension in saline). In the case of `O=C(O)c1cccnc1`, the survivor count under setting [3] was 9 of 10. `c1ccc2c(c1)ccc1c[n+]3ccccc3cc12`: the survivor count (dose: 2.0 mg/kg/injection, schedule: Q01DX009 (ip), vehicle: saline) is on record as 6 of 6. On to `O=c1[nH]c(Cl)ncc1F`, for which the survivor count is, setting by setting: (dose: 75.0 mg/kg/injection, schedule: Q01DX009 (ip), vehicle: Klucel (hydroxypropylcellulose) (HPC)) 10 of 10; (dose: 150.0 mg/kg/injection, schedule: Q01DX009 (ip), vehicle: Klucel (hydroxypropylcellulose) (HPC)) 10 of 10; (dose: 300.0 mg/kg/injection, schedule: Q01DX009 (ip), vehicle: Klucel (hydroxypropylcellulose) (HPC)) 0 of 10. On to `C[C@]12CC[C@@H]3c4ccc(O)cc4CC[C@H]3[C@@H]1C[C@@H](O)[C@@H]2O`, for which, under setting [1], the survivor count is 6 of 6.

As for `O=NN(CCCl)C(=O)NC1c2cc(Cl)ccc2-c2c(Cl)cc(Cl)cc21` (configuration not stated), the survivor count under setting [4] is reported as 6 of 6. Take `C(=N/NC1=NCCN1)/c1c2ccccc2c(/C=N\NC2=NCCN2)c2ccccc12`: where the note is “dose: 25.0 mg/kg/injection, schedule: Q01DX009 (ip), vehicle: saline”, the survivor count is given as 10 of 10. As to `COc1cccc2c1C(=O)c1c(O)c3c(c(O)c1C2=O)C[C@@](O)(C(=O)CO)C[C@@H]3OC1CC([N+](C)(C)C)C(O)C(C)O1` (some centres not stated), the T/C was 125 % of control [7 of 8 alive] (dose: 18.0 mg/kg/injection, schedule: Q01DX001 (ip), vehicle: water) and 131 % of control (dose: 20.0 mg/kg/injection, schedule: Q04DX003 (ip), vehicle: water). With `OCCOCCN1CCN(C(c2ccccc2)c2ccc(Cl)cc2)CC1` (configuration not stated), the survivor count was 0 of 10 under setting [5] and 0 of 10 under setting [6]. Turning to `Cc1n(CC(C)C)c2c([n+]1CC(=O)c1ccc([N+](=O)[O-])cc1)C(=O)c1ccccc1C2=O`, the survivor count by setting is: (dose: 5.0 mg/kg/injection, schedule: Q01DX009 (ip), vehicle: saline with Tween-80) 1 of 6; (dose: 10.0 mg/kg/injection, schedule: Q01DX009 (ip), vehicle: saline with Tween-80) 0 of 6. Consider `CC(C)CC(NC(=O)OCc1ccccc1)C(=O)O` (configuration not stated), for which, under setting [7], the T/C is 128 % of control [9 of 10 alive]. In addition, the survivor count (dose: 200.0 mg/kg/injection, schedule: Q04DX003 (ip), vehicle: saline with Tween-80) is 10 of 10 and the survivor count (dose: 400.0 mg/kg/injection, schedule: Q04DX003 (ip), vehicle: saline with Tween-80) is 10 of 10.

For `O=[N+]([O-])c1ccc2c(N=Nc3c(O)ccc4ccccc34)c(O)cc(S(=O)(=O)O)c2c1`, the survivor count under setting [4] is on record as 10 of 10.

Turning to `COc1cc(C)c2c(c1C=O)Oc1c(c(C)c(O)c3c1C(O)OC3=O)OC2=O` (configuration not stated), the survivor count (dose: 100.0 mg/kg/injection, schedule: Q01DX009 (ip), vehicle: saline) was 8 of 10. With `CSc1ccc(NC(=O)CCl)cc1`, under setting [7], the survivor count is 10 of 10. Take `C1=NC(c2ccccn2)=NNC(c2ccccn2)=C1c1ccccc1`: under setting [3], the survivor count was 10 of 10.

For `CCC(=O)NC1=C(N2CC2)C(=O)C(NC(=O)CC)=C(N2CC2)C1=O`, the survivor count (dose: 4.0 mg/kg/injection, schedule: Q01DX009 (ip), vehicle: saline) is given as 10 of 10. Consider `CCOC(=O)C(Cc1c[nH]c2cc(N)ccc12)(NC(C)=O)C(=O)OCC`, for which the survivor count under setting [1] is recorded as 9 of 10.

For `CCN(C)N=Nc1ccc(C(N)=O)cc1`, the survivor count reads like this: under setting [2], 10 of 10; under setting [3], 10 of 10. In the case of `CC(=O)NCC1(c2ccccc2)CCN(CCCC(=O)c2ccc(F)cc2)CC1`, the survivor count by setting is: under setting [3], 1 of 10; under setting [5], 0 of 10; under setting [6], 0 of 10. As for `CCOC(=O)C(=Cc1ccc(C=C(C(=O)OCC)C(=O)OCC)cc1)C(=O)OCC`, the survivor count under setting [2] is 4 of 6.

As to `CC(=O)N1CCC2(CC1)SSC1(CCN(C(C)=O)CC1)S2`, the survivor count (dose: 20.0 mg/kg/injection, schedule: Q01DX009 (ip), vehicle: saline with Tween-80) is on record as 9 of 10. As for `COc1cc(C(=O)c2cc3c(cc2C)OCO3)cc(OC)c1OC`, under setting [2], the T/C is 130 % of control. In addition, the survivor count under setting [3] is listed as 5 of 10. For the compound `CNC(=S)N/N=C(\C=N\NC(=S)NC)c1ccc(C)cc1`, under setting [1], the survivor count was 10 of 10. In the case of `O=[N+]([O-])O.O=[N+]([O-])O.[O]=[Zr]`, the survivor count (dose: 100.0 mg/kg/injection, schedule: Q04DX003 (ip), vehicle: saline) is 10 of 10; the survivor count (dose: 200.0 mg/kg/injection, schedule: Q04DX003 (ip), vehicle: saline) is recorded as 10 of 10; the survivor count (dose: 400.0 mg/kg/injection, schedule: Q04DX003 (ip), vehicle: saline) was 10 of 10. With `O=C1C2CC=CCC2C(=O)N1SC(Cl)(Cl)Cl` (configuration not stated), the survivor count was 10 of 10 (dose: 6.25 mg/kg/injection, schedule: Q01DX009 (ip), vehicle: saline with Tween-80); 10 of 10 (dose: 12.5 mg/kg/injection, schedule: Q01DX009 (ip), vehicle: saline with Tween-80); 9 of 10 (dose: 25.0 mg/kg/injection, schedule: Q01DX009 (ip), vehicle: saline with Tween-80).

As for `COC(=O)/C(C#N)=N/O`, the survivor count is, setting by setting: (dose: 150.0 mg/kg/injection, schedule: Q04DX003 (ip), vehicle: saline) 10 of 10; under setting [5], 9 of 10; (dose: 300.0 mg/kg/injection, schedule: Q04DX003 (ip), vehicle: saline) 10 of 10. Turning to `CCCCCCCCC1CCC(N)CC1` (configuration not stated), the survivor count under setting [3] is 10 of 10. Regarding `CC(CNCCN)C[Si](C)(C)C` (configuration not stated), the survivor count (dose: 50.0 mg/kg/injection, schedule: Q01DX009 (ip), vehicle: suspension in saline) is given as 10 of 10.
